Values from PubChem BioAssay AID1224830 (NIAID, 2016)
Here is one part, drawn at random, of about 18,000 reagents. In the full data, about 2,900 (16%) are marked active. 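Calls are made per well; low scores hint the gene aids the LPS response, high scores that it dampens it.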 Unmarked entries are inactive. Repeated entries: four replicate wells of each siRNA pool. Reagent sequences are not shown.

- Assay: 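Genes whose knock-down alters the TNF-alpha reporter response to LPS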 (primary screen)
- Cell system: human THP-1 monocytic leukaemia cells, TNF dual-luciferase reporter clone, PMA-differentiated to macrophage-like cells
- Knock-down reagent: siRNA pool against human genes, 50 nM
- Time to read-out: LPS for 4 h, given about 3 days after siRNA transfection
- Challenge: bacterial LPS (TLR4 ligand), 10 ng/ml
- Read-out: 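Ratio of firefly to renilla light, scaled to the plate median and expressed as a robust z-score per replicate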
- Scale: TNF reporter robust z-score: higher = stronger TNF reporter response to LPS
- Active means: 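Each well counts as active if its z-score is over 2.8 or under -1.5; controls are left without a call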

target | TNF reporter robust z-score
RNASEH1 (GeneID 246243) | -0.56
RNASEH1 (GeneID 246243) | -0.9
RNASEH1 (GeneID 246243) | -0.7
RNASEH1 (GeneID 246243) | -0.39
TDRP (GeneID 157695) | 0.13
TDRP (GeneID 157695) | -0.22
TDRP (GeneID 157695) | -0.51
TDRP (GeneID 157695) | 0.97
RPL4 (GeneID 6124) | -0.93
RPL4 (GeneID 6124) | -1.28
RPL4 (GeneID 6124) | -0.99
RPL4 (GeneID 6124) | -1.52 (active)
THBD (GeneID 7056) | 0
THBD (GeneID 7056) | 0.87
THBD (GeneID 7056) | 1.09
THBD (GeneID 7056) | 1.14
HMGN2 (GeneID 3151) | -1.21
HMGN2 (GeneID 3151) | -1.64 (active)
HMGN2 (GeneID 3151) | -1.56 (active)
HMGN2 (GeneID 3151) | -1.74 (active)
PRRX1 (GeneID 5396) | -0.66
PRRX1 (GeneID 5396) | -0.22
PRRX1 (GeneID 5396) | -1.01
PRRX1 (GeneID 5396) | -0.49
HSBP1 (GeneID 3281) | -0.39
HSBP1 (GeneID 3281) | -0.42
HSBP1 (GeneID 3281) | -0.92
HSBP1 (GeneID 3281) | -0.95

Records listed so far whose gene name begins with H or h:
target | TNF reporter robust z-score
HMGN2 (GeneID 3151) | -1.21
HMGN2 (GeneID 3151) | -1.64 (active)
HMGN2 (GeneID 3151) | -1.56 (active)
HMGN2 (GeneID 3151) | -1.74 (active)
HSBP1 (GeneID 3281) | -0.39
HSBP1 (GeneID 3281) | -0.42
HSBP1 (GeneID 3281) | -0.92
HSBP1 (GeneID 3281) | -0.95

Continued:
target | TNF reporter robust z-score
PBXIP1 (GeneID 57326) | 1.7
PBXIP1 (GeneID 57326) | 0.61
PBXIP1 (GeneID 57326) | -0.07
PBXIP1 (GeneID 57326) | 2.9 (active)
ACCS (GeneID 84680) | 0.74
ACCS (GeneID 84680) | 1.15
ACCS (GeneID 84680) | 0
ACCS (GeneID 84680) | 0.61
IRAK3 (GeneID 11213) | -0.7
IRAK3 (GeneID 11213) | -0.24
IRAK3 (GeneID 11213) | -1.05
IRAK3 (GeneID 11213) | 0.16
RIMBP2 (GeneID 23504) | 3.77 (active)
RIMBP2 (GeneID 23504) | 1.4
RIMBP2 (GeneID 23504) | 1.17
RIMBP2 (GeneID 23504) | 1.8
SRY (GeneID 6736) | 1.49
SRY (GeneID 6736) | 2.48
SRY (GeneID 6736) | 0.99
SRY (GeneID 6736) | 2.87 (active)
GPR153 (GeneID 387509) | -0.43
GPR153 (GeneID 387509) | 1.79
GPR153 (GeneID 387509) | -0.24
GPR153 (GeneID 387509) | 0.95
FAM151A (GeneID 338094) | -1.21
FAM151A (GeneID 338094) | -1.15
FAM151A (GeneID 338094) | -1.19
FAM151A (GeneID 338094) | -1.38
EZH2 (GeneID 2146) | 0.13
EZH2 (GeneID 2146) | -0.48
EZH2 (GeneID 2146) | -0.68
EZH2 (GeneID 2146) | -0.46
NPC1L1 (GeneID 29881) | 0.92
NPC1L1 (GeneID 29881) | 1.32
NPC1L1 (GeneID 29881) | 2.35
NPC1L1 (GeneID 29881) | 1.62
EDN3 (GeneID 1908) | -0.25
EDN3 (GeneID 1908) | 0.78
EDN3 (GeneID 1908) | -1.45
EDN3 (GeneID 1908) | -0.78
GPR180 (GeneID 160897) | -0.54
GPR180 (GeneID 160897) | 0.4
GPR180 (GeneID 160897) | 0.48
GPR180 (GeneID 160897) | 0.6
MYL7 (GeneID 58498) | -1.6 (active)
MYL7 (GeneID 58498) | -1.15
MYL7 (GeneID 58498) | -1.18
MYL7 (GeneID 58498) | -1.07
